# Measured values as given in article PMC6207785.
# The chains behind the UniProt entries cited, without tags or fusion partners. Where a name states a change or a piece, a line headed by the entry shows the natural chain unless it says otherwise. A line that says so, or that is headed by a name, gives the form on record, which may keep a tag or linker.
# ROR-γt (endogenous, mouse colonic lamina propria lymphocytes) (mouse (endogenous in cLPLs of C57BL/6 mice)) (P51450, form named): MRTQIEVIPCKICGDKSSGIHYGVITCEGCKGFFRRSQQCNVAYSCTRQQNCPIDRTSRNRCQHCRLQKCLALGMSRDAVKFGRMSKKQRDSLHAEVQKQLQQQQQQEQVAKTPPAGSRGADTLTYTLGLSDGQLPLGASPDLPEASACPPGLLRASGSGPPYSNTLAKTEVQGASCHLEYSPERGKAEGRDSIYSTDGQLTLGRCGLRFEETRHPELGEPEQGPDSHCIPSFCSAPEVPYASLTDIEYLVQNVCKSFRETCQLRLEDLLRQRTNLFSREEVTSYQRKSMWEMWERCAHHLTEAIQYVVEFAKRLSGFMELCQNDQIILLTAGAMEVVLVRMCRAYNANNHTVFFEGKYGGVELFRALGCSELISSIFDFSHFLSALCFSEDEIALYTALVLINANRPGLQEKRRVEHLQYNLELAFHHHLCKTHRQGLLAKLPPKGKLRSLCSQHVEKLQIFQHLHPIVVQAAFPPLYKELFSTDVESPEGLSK
# UniProt P63280: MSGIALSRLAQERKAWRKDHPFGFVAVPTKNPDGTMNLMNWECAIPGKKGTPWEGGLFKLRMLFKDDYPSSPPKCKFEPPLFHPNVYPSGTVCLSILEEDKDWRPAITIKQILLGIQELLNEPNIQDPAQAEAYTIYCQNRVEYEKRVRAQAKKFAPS
# UniProt P70288: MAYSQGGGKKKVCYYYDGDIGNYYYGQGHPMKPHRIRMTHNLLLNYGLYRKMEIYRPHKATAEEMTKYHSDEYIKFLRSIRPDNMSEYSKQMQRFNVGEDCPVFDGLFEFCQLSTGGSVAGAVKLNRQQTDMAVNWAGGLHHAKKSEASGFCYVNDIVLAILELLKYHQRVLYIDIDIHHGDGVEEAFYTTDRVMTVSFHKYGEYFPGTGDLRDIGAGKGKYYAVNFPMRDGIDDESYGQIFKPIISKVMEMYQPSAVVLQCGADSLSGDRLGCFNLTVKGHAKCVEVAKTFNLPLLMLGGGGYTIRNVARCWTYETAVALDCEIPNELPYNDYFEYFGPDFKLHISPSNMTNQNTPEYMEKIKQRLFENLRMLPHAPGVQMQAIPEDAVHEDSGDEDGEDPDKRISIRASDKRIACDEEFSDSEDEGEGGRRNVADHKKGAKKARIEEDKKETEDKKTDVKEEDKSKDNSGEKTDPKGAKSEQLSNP
# Target: ROR-γt (endogenous, mouse colonic lamina propria lymphocytes) (mouse (endogenous in cLPLs of C57BL/6 mice)) (UniProt P51450)
# Assay: affinity purification with mass spectrometry; anti-ROR-γt or control IgG immunoprecipitation from lysate of cLPLs of WT mice; SDS-PAGE, in-gel trypsin digestion, LC-MS/MS (Orbitrap)
row,Substance,binding
1,"Ubc9 (endogenous, mouse colonic lamina propria lymphocytes) (from UniProt P63280 1-158) (enzyme)",binds
2,"HDAC2 (endogenous, mouse cells) (from UniProt P70288 1-488) (enzyme)",binds

# These are yes or no findings as the source states them, for the method shown. In cells and extracts the contact can be indirect. These calls come from enrichment with a bait or labelling near it, and not all partners need be listed.
